Laboratory results: PubChem BioAssay AID504808 (Drosophila RNAi Screening Center, 2011)

Aim: 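Fly genes required to hold E2F transcription in check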 (primary screen)
System: Drosophila S2 cells
Knock-down reagent: long dsRNA against Drosophila genes
Read-out: 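Firefly luciferase driven by E2F sites, normalised to Renilla luciferase on the same minimal promoter, measured by plate reader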
Reading the numbers: E2F firefly: higher = more E2F reporter activity; Renilla normaliser: higher = more normaliser reporter signal
Hit rule: 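a knock-down counted as active when the firefly/Renilla E2F signal rose above 50%, a threshold chosen arbitrarily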
The screen tested about 21,000 reagents; this is a random part of those that have a named target and a result. Over the whole deposit, 18 (0.084%) were called active. 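Raw counts without plate normalisation, one of two replicates; the ratio scores behind the calls were not deposited.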 A number with no mark means an inactive call. A plus sign joins genes that one reagent is predicted to hit. Not given: the amount of reagent, the time to read-out.

Against CG8788 [DRSC07267] the deposit lists E2F firefly, rep 1 = 1.46e5; Renilla normaliser, rep 1 = 4933. CecC [DRSC16606] scored E2F firefly, rep 1 = 1.45e5; Renilla normaliser, rep 1 = 6310. Depletion of CG13896 [DRSC08366] resulted in: E2F firefly, rep 1 = 92376; Renilla normaliser, rep 1 = 3979. After knock-down of CG13083 [DRSC02187] the results were E2F firefly, rep 1 = 1.07e5; Renilla normaliser, rep 1 = 4149. Depletion of Gr77a [DRSC11446] came out at: E2F firefly, rep 1 = 61439; Renilla normaliser, rep 1 = 2145. Mlc1 [DRSC16740] gave E2F firefly, rep 1 = 97042; Renilla normaliser, rep 1 = 5657.

With knock-down of CG9062 [DRSC07327] the results were E2F firefly, rep 1 = 1.10e5; Renilla normaliser, rep 1 = 4483. reb [DRSC06308] scored E2F firefly, rep 1 = 93192; Renilla normaliser, rep 1 = 3870. Depletion of CG17292 [DRSC02594] resulted in: E2F firefly, rep 1 = 98583; Renilla normaliser, rep 1 = 3729. For CG42268 [DRSC10171], the values are E2F firefly, rep 1 = 1.16e5; Renilla normaliser, rep 1 = 8300. CG42268 [DRSC10702] gave E2F firefly, rep 1 = 1.37e5; Renilla normaliser, rep 1 = 7696. After knock-down of CG6005 [DRSC15945] the results were E2F firefly, rep 1 = 78584; Renilla normaliser, rep 1 = 3359.

After knock-down of CG10486 [DRSC09735] the results were E2F firefly, rep 1 = 70908; Renilla normaliser, rep 1 = 3238. Mtpbeta [DRSC04663] scored E2F firefly, rep 1 = 93983; Renilla normaliser, rep 1 = 3718. After knock-down of Cog8 [DRSC02961] the results were E2F firefly, rep 1 = 90494; Renilla normaliser, rep 1 = 5108. For Svil [DRSC07981] the deposit lists E2F firefly, rep 1 = 1.38e5; Renilla normaliser, rep 1 = 4249. With knock-down of Svil [DRSC08296] the results were E2F firefly, rep 1 = 67128; Renilla normaliser, rep 1 = 3674. With knock-down of Svil [DRSC08332] the results were E2F firefly, rep 1 = 1.03e5; Renilla normaliser, rep 1 = 4255.

For Svil [DRSC08333], the values are E2F firefly, rep 1 = 78419; Renilla normaliser, rep 1 = 3756. After knock-down of Svil [DRSC08494], the record shows E2F firefly, rep 1 = 1.17e5; Renilla normaliser, rep 1 = 4649. Depletion of IntS10 [DRSC08173] resulted in: E2F firefly, rep 1 = 1.02e5; Renilla normaliser, rep 1 = 4107. Knock-down of pre-mod(mdg4)-W + pre-mod(mdg4)-Y + mod(mdg4) + 3 more [DRSC16328] resulted in: E2F firefly, rep 1 = 1.13e5; Renilla normaliser, rep 1 = 7046. Silencing of Gyf [DRSC17202] came out at: E2F firefly, rep 1 = 2226; Renilla normaliser, rep 1 = 856. After knock-down of Ser12 [DRSC00786] the results were E2F firefly, rep 1 = 1.63e5; Renilla normaliser, rep 1 = 6276.

After knock-down of CR10032 [DRSC12499], the screen gave E2F firefly, rep 1 = 1.33e5; Renilla normaliser, rep 1 = 6198. With knock-down of CG10405 [DRSC14238], the screen gave E2F firefly, rep 1 = 95187; Renilla normaliser, rep 1 = 5271. Depletion of dmrt93B [DRSC15865] came out at: E2F firefly, rep 1 = 1.56e5; Renilla normaliser, rep 1 = 7413. For sra [DRSC17015], the entry reads E2F firefly, rep 1 = 83452; Renilla normaliser, rep 1 = 5728.

3 entries from above, ordered by “E2F firefly, rep 1”, high to low.
Mtpbeta [DRSC04663]: E2F firefly, rep 1 = 93983; Renilla normaliser, rep 1 = 3718
Cog8 [DRSC02961]: E2F firefly, rep 1 = 90494; Renilla normaliser, rep 1 = 5108
CG10486 [DRSC09735]: E2F firefly, rep 1 = 70908; Renilla normaliser, rep 1 = 3238
